Results are given in words; binding and its absence hold for the method and conditions named. Binding seen in cells or lysates may run through a third protein.
Assays:
[1] = molecular target: p53 (mutant, endogenous in LN215 glioblastoma cells) (human (endogenous in LN215)) (UniProt P04637); assay: co-IP; endogenous proteins; lysates of U87, LN215 and SNB19 cells incubated with anti-p53 monoclonal antibody (sc-126) at 4 °C overnight, protein A/G agarose 3 h, immunoblot
[2] = molecular target: p53 (mutant, endogenous in SNB19 glioblastoma cells) (human (endogenous in SNB19)) (UniProt P04637); assay: as above

Amino acid sequences for entries named in this document (tags omitted).
UniProt O94953: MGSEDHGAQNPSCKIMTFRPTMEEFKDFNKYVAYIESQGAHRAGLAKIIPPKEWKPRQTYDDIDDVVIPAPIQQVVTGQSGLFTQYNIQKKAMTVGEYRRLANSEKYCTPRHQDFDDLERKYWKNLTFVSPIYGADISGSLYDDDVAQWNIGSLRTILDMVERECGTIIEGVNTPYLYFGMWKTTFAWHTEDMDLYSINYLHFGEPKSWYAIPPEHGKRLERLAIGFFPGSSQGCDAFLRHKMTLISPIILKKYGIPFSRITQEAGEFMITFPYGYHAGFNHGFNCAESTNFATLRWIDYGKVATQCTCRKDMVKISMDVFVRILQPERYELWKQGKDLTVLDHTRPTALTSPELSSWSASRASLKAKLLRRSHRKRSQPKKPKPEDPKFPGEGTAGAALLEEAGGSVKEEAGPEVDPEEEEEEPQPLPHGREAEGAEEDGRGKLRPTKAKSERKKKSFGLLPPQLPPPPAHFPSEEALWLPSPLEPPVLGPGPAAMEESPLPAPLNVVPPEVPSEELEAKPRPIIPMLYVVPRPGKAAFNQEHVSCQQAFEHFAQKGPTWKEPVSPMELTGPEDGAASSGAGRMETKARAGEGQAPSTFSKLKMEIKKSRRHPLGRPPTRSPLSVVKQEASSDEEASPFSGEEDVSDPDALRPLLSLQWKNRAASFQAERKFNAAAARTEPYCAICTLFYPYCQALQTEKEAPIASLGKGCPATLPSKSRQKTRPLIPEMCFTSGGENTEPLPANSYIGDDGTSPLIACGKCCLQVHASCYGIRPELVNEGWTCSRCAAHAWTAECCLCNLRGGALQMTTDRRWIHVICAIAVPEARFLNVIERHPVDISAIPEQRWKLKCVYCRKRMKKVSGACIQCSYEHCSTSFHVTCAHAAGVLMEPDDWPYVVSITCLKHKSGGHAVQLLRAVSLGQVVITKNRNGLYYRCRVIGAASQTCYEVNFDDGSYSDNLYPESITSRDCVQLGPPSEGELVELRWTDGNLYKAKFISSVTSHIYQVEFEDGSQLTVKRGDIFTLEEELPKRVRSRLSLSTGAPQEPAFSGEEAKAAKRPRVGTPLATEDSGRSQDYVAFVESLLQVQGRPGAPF

“KDM4B (endogenous in glioblastoma cells) (from UniProt O94953 1-1096)” was tested, and the binding [1] was “no binding” and the binding [2] was “no binding”.

B1: KDM4D (endogenous in glioblastoma cells) (protein, UniProt Q6B0I6 1-523)
chain: METMKSKANCAQNPNCNIMIFHPTKEEFNDFDKYIAYMESQGAHRAGLAKIIPPKEWKARETYDNISEILIATPLQQVASGRAGVFTQYHKKKKAMTVGEYRHLANSKKYQTPPHQNFEDLERKYWKNRIYNSPIYGADISGSLFDENTKQWNLGHLGTIQDLLEKECGVVIEGVNTPYLYFGMWKTTFAWHTEDMDLYSINYLHLGEPKTWYVVPPEHGQRLERLARELFPGSSRGCGAFLRHKVALISPTVLKENGIPFNRITQEAGEFMVTFPYGYHAGFNHGFNCAEAINFATPRWIDYGKMASQCSCGEARVTFSMDAFVRILQPERYDLWKRGQDRAVVDHMEPRVPASQELSTQKEVQLPRRAALGLRQLPSHWARHSPWPMAARSGTRCHTLVCSSLPRRSAVSGTATQPRAAAVHSSKKPSSTPSSTPGPSAQIIHPSNGRRGRGRPPQKLRAQELTLQTPAKRPLLAGTTCTASGPEPEPLPEDGALMDKPVPLSPGLQHPVKASGCSWAPVP
With B1 the binding [1] was “no binding” and the binding [2] was “no binding”.
